Binding data for three molecules are collected here from publication doi:10.1101/2023.08.31.555722.

These are yes or no findings as the source states them, for the method shown. Binding seen in cells or lysates may run through a third protein. Some binding calls cover weakened binding; strength is not graded here. Sequences can lack the tags named with a protein.

What all share (experiment): co-IP
One experiment concerns the target T1, Vps39-FLAG (human) (UniProt Q96JC1).
T1 sequence: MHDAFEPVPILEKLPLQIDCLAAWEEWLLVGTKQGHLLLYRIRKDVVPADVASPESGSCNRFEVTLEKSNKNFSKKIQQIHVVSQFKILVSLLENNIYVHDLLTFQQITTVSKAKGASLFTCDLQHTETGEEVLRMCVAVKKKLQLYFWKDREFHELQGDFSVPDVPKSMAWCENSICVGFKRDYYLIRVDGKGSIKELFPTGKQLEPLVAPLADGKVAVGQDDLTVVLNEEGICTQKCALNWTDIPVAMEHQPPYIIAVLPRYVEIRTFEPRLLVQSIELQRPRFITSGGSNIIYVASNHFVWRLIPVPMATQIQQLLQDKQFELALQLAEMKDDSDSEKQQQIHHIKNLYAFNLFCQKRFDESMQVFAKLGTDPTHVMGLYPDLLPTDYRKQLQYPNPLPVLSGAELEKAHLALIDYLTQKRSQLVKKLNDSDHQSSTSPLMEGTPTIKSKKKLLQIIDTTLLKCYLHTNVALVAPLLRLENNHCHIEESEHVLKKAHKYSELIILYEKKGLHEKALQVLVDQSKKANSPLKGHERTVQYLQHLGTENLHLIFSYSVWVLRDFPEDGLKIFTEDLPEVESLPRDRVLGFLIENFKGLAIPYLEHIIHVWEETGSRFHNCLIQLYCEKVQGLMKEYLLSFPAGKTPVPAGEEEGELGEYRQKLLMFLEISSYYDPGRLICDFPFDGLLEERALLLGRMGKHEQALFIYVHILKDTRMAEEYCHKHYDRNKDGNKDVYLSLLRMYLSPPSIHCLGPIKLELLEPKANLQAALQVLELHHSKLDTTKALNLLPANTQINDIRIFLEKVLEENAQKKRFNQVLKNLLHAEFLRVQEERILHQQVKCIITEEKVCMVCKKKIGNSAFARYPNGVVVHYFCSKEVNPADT

Experiment [1] has as its target T2, Tgfbrap1-FLAG (human), Q8WUH2.
T2 chain: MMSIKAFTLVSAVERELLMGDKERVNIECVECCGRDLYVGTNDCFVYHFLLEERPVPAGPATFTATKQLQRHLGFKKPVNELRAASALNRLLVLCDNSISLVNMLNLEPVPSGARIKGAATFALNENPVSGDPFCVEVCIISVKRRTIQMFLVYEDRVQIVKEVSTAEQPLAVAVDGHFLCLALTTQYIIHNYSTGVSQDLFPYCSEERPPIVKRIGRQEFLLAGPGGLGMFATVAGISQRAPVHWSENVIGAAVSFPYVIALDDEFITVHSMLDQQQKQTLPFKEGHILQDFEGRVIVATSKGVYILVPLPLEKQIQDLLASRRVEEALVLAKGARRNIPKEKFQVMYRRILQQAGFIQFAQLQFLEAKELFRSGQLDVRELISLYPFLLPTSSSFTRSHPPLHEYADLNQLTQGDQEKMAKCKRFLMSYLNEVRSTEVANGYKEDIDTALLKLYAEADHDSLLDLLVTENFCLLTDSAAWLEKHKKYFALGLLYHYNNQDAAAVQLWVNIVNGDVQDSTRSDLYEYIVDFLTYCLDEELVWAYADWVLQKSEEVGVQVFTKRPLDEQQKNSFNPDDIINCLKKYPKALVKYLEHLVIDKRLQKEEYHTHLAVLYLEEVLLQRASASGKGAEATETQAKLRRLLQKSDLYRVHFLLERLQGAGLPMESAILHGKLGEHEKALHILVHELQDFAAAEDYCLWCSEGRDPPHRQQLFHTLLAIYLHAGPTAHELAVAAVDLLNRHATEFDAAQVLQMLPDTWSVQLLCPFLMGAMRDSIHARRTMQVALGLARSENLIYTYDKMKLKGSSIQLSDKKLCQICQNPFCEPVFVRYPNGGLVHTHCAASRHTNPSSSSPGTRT
Particulars: remark: other sources report otherwise.

Another experiment concerns the target T3, Tgfbrap1-FLAG (human) (UniProt Q8WUH2).
T3 sequence: T2 chain

B1: Vps41-HA (protein, UniProt P49754 1-854)
chain: MAEAEEQETGSLEESTDESEEEESEEEPKLKYERLSNGVTEILQKDAASCMTVHDKFLALGTHYGKVYLLDVQGNITQKFDVSPVKINQISLDESGEHMGVCSEDGKVQVFGLYSGEEFHETFDCPIKIIAVHPHFVRSSCKQFVTGGKKLLLFERSWMNRWKSAVLHEGEGNIRSVKWRGHLIAWANNMGVKIFDIISKQRITNVPRDDISLRPDMYPCSLCWKDNVTLIIGWGTSVKVCSVKERHASEMRDLPSRYVEIVSQFETEFYISGLAPLCDQLVVLSYVKEISEKTEREYCARPRLDIIQPLSETCEEISSDALTVRGFQENECRDYHLEYSEGESLFYIVSPRDVVVAKERDQDDHIDWLLEKKKYEEALMAAEISQKNIKRHKILDIGLAYINHLVERGDYDIAARKCQKILGKNAALWEYEVYKFKEIGQLKAISPYLPRGDPVLKPLIYEMILHEFLESDYEGFATLIREWPGDLYNNSVIVQAVRDHLKKDSQNKTLLKTLAELYTYDKNYGNALEIYLTLRHKDVFQLIHKHNLFSSIKDKIVLLMDFDSEKAVDMLLDNEDKISIKKVVEELEDRPELQHVYLHKLFKRDHHKGQRYHEKQISLYAEYDRPNLLPFLRDSTHCPLEKALEICQQRNFVEETVYLLSRMGNSRSALKMIMEELHDVDKAIEFAKEQDDGELWEDLILYSIDKPPFITGLLNNIGTHVDPILLIHRIKEGMEIPNLRDSLVKILQDYNLQILLREGCKKILVADSLSLLKKMHRTQMKGVLVDEENICESCLSPILPSDAAKPFSVVVFHCRHMFHKECLPMPSMNSAAQFCNICSAKNRGPGSAILEMKK
Consider B1, for which the binding entry with Vps39-FLAG (human) is on record as “binds”.

B2: Vps41-HA, P49754 1-854 (protein)
chain: B1 chain
As for B2, the binding result in experiment [1] was “no binding”.

B3: Vps8 (without tag) (protein, UniProt Q8N3P4 1-1428)
chain: MENEPDHENVEQSLCAKTSEEELNKSFNLEASLSKFSYIDMDKELEFKNDLIDDKEFDIPQVDTPPTLESILNETDDEDESFILEDPTLLNIDTIDSHSYDTSSVASSDSGDRTNLKRKKKLPDSFSLHGSVMRHSLLKGISAQIVSAADKVDAGLPTAIAVSSLIAVGTSHGLALIFGKDQNQALRLCLGSTSVGGQYGAISALSINNDCSRLLCGFAKGQITMWDLASGKLLRSITDAHPPGTAILHIKFTDDPTLAICNDSGGSVFELTFKRVMGVRTCESRCLFSGSKGEVCCIEPLHSKPELKDHPITQFSLLAMASLTKILVIGLKPSLKVWMTFPYGRMDPSSVPLLAWHFVAVQNYVNPMLAFCRGDVVHFLLVKRDESGAIHVTKQKHLHLYYDLINFTWINSRTVVLLDSVEKLHVIDRQTQEELETVEISEVQLVYNSSHFKSLATGGNVSQALALVGEKACYQSISSYGGQIFYLGTKSVYVMMLRSWRERVDHLLKQDCLTEALALAWSFHEGKAKAVVGLSGDASKRKAIVADRMVEILFHYADRALKKCPDQGKIQVMEQHFQDMVPVIVDYCLLLQRKDLLFSQMYDKLSENSVAKGVFLECLEPYILSDKLVGITPQVMKDLIVHFQDKKLMENVEALIVHMDITSLDIQQVVLMCWENRLYDAMIYVYNRGMNEFISPMEKLFRVIAPPLNAGKTLTDEQVVMGNKLLVYISCCLAGRAYPLGDIPEDLVPLVKNQVFEFLIRLHSAEASPEEEIYPYIRTLLHFDTREFLNVLALTFEDFKNDKQAVEYQQRIVDILLKVMVENSDFTPSQVGCLFTFLARQLAKPDNTLFVNRTLFDQVLEFLCSPDDDSRHSERQQVLLELLQAGGIVQFEESRLIRMAEKAEFYQICEFMYEREHQYDKIIDCYLRDPLREEEVFNYIHNILSIPGHSAEEKQSVWQKAMDHIEELVSLKPCKAAELVATHFSGHIETVIKKLQNQVLLFKFLRSLLDPREGIHVNQELLQISPCITEQFIELLCQFNPTQVIETLQVLECYRLEETIQITQKYQLHEVTAYLLEKKGDIHGAFLIMLERLQSKLQEVTHQGENTKEDPSLKDVEDTMVETIALCQRNSHNLNQQQREALWFPLLEAMMAPQKLSSSAIPHLHSEALKSLTMQVLNSMAAFIALPSILQRILQDPVYGKGKLGEIQGLILGMLDTFNYEQTLLETTTSLLNQDLHWSLCNLRASVTRGLNPKQDYCSICLQQYKRRQEMADEIIVFSCGHLYHSFCLQNKECTVEFEGQTRWTCYKCSSSNKVGKLSENSSEIKKGRITPSQVKMSPSYHQSKGDPTAKKGTSEPVLDPQQIQAFDQLCRLYRGSSRLALLTELSQNRSSESYRPFSGSQSAPAFNSIFQNENFQLQLIPPPVTED
With B3, the binding result in the experiment with Tgfbrap1-FLAG (human) and in the experiment with Vps39-FLAG (human) was “binds” in each case.
